Measured values: PubChem BioAssay AID1688 (National Center for Advancing Translational Sciences (NCATS), 2009)
The campaign covered roughly 220,000 compounds. About 2,400 (1.1%) were called active. Inconclusive results, whose numbers are uncertain, are shown with a selection of clear calls. Calls come from the whole dose curve; as a rule, active = well fitted inhibition curve with a large enough effect; inconclusive = small, poorly fitted or top-dose-only effect, or effect the other way; inactive = no such curve, though single readings can be large or run the other way. A potency beside an inconclusive call is a rough fit, not a confirmed value.

Assay: qHTS Multiplex Assay to Identify Dual Action Probes in a Cell Model of Huntington: Aggregate Formation (GFP); note: nearly all actives have a fitted effect of over 60% in size
Conditions: PC12 HttQ103-GFP aggregates, Acumen cytometry, 40 h; activity change, negative = inhibition: at 46.1 µM (top of the series) unless noted
In short: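 Compounds (qHTS titration) were added to PC12 cells expressing an ecdysone-driven HTT exon 1 Q103–GFP fusion after induction with 100 nM tebufenozide. Aggregate formation was measured as GFP objects in cell lysates.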
% is set by controls: 0 for no effect and ±100 for the full control effect; potency is the fitted concentration of half-maximal effect.

Row | Structure (SMILES) | activity change, negative = inhibition | Potency
1 | CCN(CC)c1ccc(/C=c2\sc3nnc(-c4ccccc4Cl)n3c2=O)cc1 | inactive: -6.51% | –
2 | Cc1ccc(C(=O)OCC(=O)Nc2c(C)n(C)n(-c3ccccc3)c2=O)cc1[N+](=O)[O-] | inactive: 21.8% | –
3 | Cc1ccc(C(=O)c2cc([N+](=O)[O-])ccc2N2CCOCC2)cc1C | – | inconclusive: 0.631 µM [inhibitor, single point]
4 | CN(Cc1cccc2cnccc12)C(=O)CCc1nnc(CCc2ccccc2)o1 | inactive: -13.2% [at 9.22 µM] | –
5 | O=C(NCCC1=CCCCC1)c1coc(=O)c(Br)c1 | – | inconclusive: 35.5 µM [inhibitor, single point]
6 | COc1cccc(C(=O)NN/C(C)=C/C(=O)C(F)(F)C(F)(F)C(F)(F)F)c1 | – | inconclusive: 11.2 µM [inhibitor, partial curve]
7 | O=c1c2ccccc2nnn1CSc1ccc2ccccc2n1 | inactive: -2.71% | –
8 | Cc1ccccc1OC1C(=O)N(Cc2ccc3c(c2)OCO3)C1c1sccc1C (stereo not given) | – | inconclusive: 35.5 µM [inhibitor, single point]
9 | O=[N+]([O-])c1cc(/C=N/O)ccc1Sc1ccccc1 | – | inconclusive: 35.5 µM [inhibitor, single point]
10 | CCC(=O)NC(/C=C/c1ccccc1)c1cc([N+](=O)[O-])c2cccnc2c1O (stereo not given) | – | inconclusive: 6.31 µM [inhibitor, full curve]
11 | O=C(NC1CCS(=O)(=O)C1)/C(=C/c1ccco1)NC(=O)c1ccccc1 (stereo not given) | – | active: 0.178 µM
12 | O=C(CNC(=S)N(Cc1ccccc1)Cc1ccccc1F)NCCc1ccc(Cl)cc1 | – | inconclusive: 35.5 µM [inhibitor, single point]
13 | COc1ccc(NC(C)=O)cc1NC(=O)c1ccc2ccccc2c1 | – | inconclusive: 17.8 µM [inhibitor, single point]
14 | OCC1OC(n2nc3ccccc3n2)C(O)C(O)C1O (stereo not given) | inactive: 16.5% | –
15 | N#CC(=C=[N-])c1nc2ccccc2nc1-[n+]1cccc(NC(=O)c2ccc(F)cc2)c1 | inactive: 40.4% [at 9.22 µM] | –
16 | Cc1ccc(NC(=O)c2ccc(Cl)c(N3C(=O)C=CC3=O)c2)cc1 | – | inconclusive: 15.8 µM [inhibitor, single point]
17 | CCN(CC)CCNC(=O)c1ccc(NC(=O)c2cn(-c3ccccc3)nc2-c2cccs2)cc1 | – | inconclusive: 15.8 µM [inhibitor, single point]
18 | C/C(Cl)=C/Cn1c(SCc2ccc(Cl)cc2)nc2c1c(=O)[nH]c(=O)n2C | – | inconclusive: 3.98 µM [inhibitor, single point]
19 | CS(=O)(=O)N(CC(=O)Nc1ccccc1Sc1ccccc1)C1CCCCC1 | – | inconclusive: 5.62 µM [inhibitor, single point]
20 | O=S(=O)(c1ccc2c(c1)C(=NO)c1cc(S(=O)(=O)N3CCCCC3)ccc1-2)N1CCCCC1 | – | inconclusive: 1.78 µM [inhibitor, full curve]
21 | Cc1nnc(NC(=O)CSC2CCCCC2)s1 | inactive: -15.6% | –
22 | CCOC(=O)c1c(-c2ccc(C)o2)csc1NC(=S)NC(=O)c1ccccc1Br | – | inconclusive: 0.708 µM [activator, single point]
23 | COc1ccc(CNC(=O)Cc2nn(C)c(=O)c3ccccc23)cc1 | – | inconclusive: 7.94 µM [inhibitor, partial curve]
24 | COC(=O)c1ccc(-n2nnnc2SCC(=O)Nc2ccccc2C(=O)OC)cc1 | inactive: -6.32% | –

Row | Structure (SMILES) | activity change, negative = inhibition | Potency
25 | O=C(CSc1nc2cc(Cl)ccc2s1)N1CCCc2ccccc21 | inactive: -9.08% | –
26 | c1ccc2[nH]c3cc4ncnc4cc3nc2c1 | – | inconclusive: 35.5 µM [inhibitor, single point]
27 | COCCN=C1NN=C(c2ccc(C)c([N+](=O)[O-])c2)CS1 | inactive: 31.3% | –
28 | c1ccc(-c2nc(NCc3ccco3)c3ccccc3n2)nc1 | – | active: 17.8 µM
29 | CCN1CCN(CCC(=O)Nc2ccc(Br)cc2)CC1 | – | inconclusive: 0.0891 µM [activator, partial curve, poor fit]
30 | CCCn1c(SCC#N)nc2c(c1=O)C1(CCCC1)Cc1ccccc1-2 | – | inconclusive: 35.5 µM [inhibitor, single point]
31 | O=C(Nc1ccccc1N1CCOCC1)c1ccc2nc[nH]c2c1 | – | inconclusive: 0.562 µM [inhibitor, full curve]
32 | Clc1nc2nc3n(c2nc1Cl)CCC3 | inactive: -19% [at 9.22 µM] | –
33 | CCOc1ccc(-c2csc(NC(=O)CSC3=NC(=O)CN3C(C)=O)n2)c2ccccc12 | – | inconclusive: 10 µM [activator, single point]
34 | CCN(CC)c1ccc(NC(=S)Nc2ccc(F)cc2)cc1 | – | inconclusive: 11.2 µM [inhibitor, partial curve]
35 | CC(C)(C)S(=O)(=O)/C(C#N)=N/Nc1ccc(C#N)cc1 | – | inconclusive: 35.5 µM [inhibitor, single point]
36 | S=c1[nH]nc(-c2ccccn2)n1/N=C/c1c(Cl)cccc1Cl | inactive: -10.3% [at 9.22 µM] | –
37 | O=C(Cc1cccs1)NNC(=S)NC(=O)c1ccco1 | – | inconclusive: 7.08 µM [inhibitor, partial curve]
38 | CCN(CC)c1ccc(-c2nc3cnccn3c2NC2CCCC2)cc1 | – | inconclusive: 35.5 µM [inhibitor, single point]
39 | O=C1OCc2cc(NS(=O)(=O)c3cccs3)ccc21 | inactive: 9.52% | –
40 | Cc1ccc2c(c1)CC1(CN2C)C(=O)OC2(CCCCC2)OC1=O | inactive: 9.21% | –
41 | CCCC(NC(=O)CCl)c1ccccc1 (stereo not given) | inactive: 7.12% | –
42 | COc1ccc2c(c1)c(=O)oc1cc(O)ccc12 | inactive: -3.56% [at 9.22 µM] | –
43 | COc1ccc2ccccc2c1CN1CCCC(CO)C1 (stereo not given) | – | inconclusive: 0.794 µM [inhibitor, single point]
44 | COCCOC(=O)C1=C(C)NC(SCC(=O)NC(C)(C)C)=C(C#N)C1c1ccco1 (stereo not given) | inactive: -4.23% | –
45 | Cc1cc(-c2ccc(N=Nc3ccc4c(S(=O)(=O)O)cc(S(=O)(=O)O)c(N)c4c3O)c(C)c2)ccc1N=Nc1ccc2c(S(=O)(=O)O)cc(S(=O)(=O)O)c(N)c2c1O | inactive: -7.98% | –
46 | COc1cc(CNc2ccccc2Oc2cc(=O)n(C)c(=O)n2C)cc(OC)c1OC | – | inconclusive: 7.08 µM [activator, full curve, poor fit]
47 | CCn1c(CCC(=O)Nc2nc3c(s2)CCCC3)nc2cc(S(=O)(=O)N(C)C)ccc21 | – | inconclusive: 14.1 µM [activator, partial curve]
48 | CCn1c(SCC(=O)NCC2CCCO2)nnc1-c1ccc(S(=O)(=O)N2CCN(C)CC2)cc1 (stereo not given) | inactive: -6.93% [at 9.22 µM] | –

Row | Structure (SMILES) | activity change, negative = inhibition | Potency
49 | C[C@H](NC(=O)c1ccco1)C(=O)NCCc1ccc(S(N)(=O)=O)cc1 | inactive: 18.5% [at 9.22 µM] | –
50 | CCCCCn1c(CN2CCN(c3cc(Cl)ccc3C)CC2)nc2c1c(=O)[nH]c(=O)n2C | inactive: 11.4% | –
51 | O=C(c1ccco1)N1CCN(c2nc(C3CC3)nc3c2nnn3Cc2ccccc2Cl)CC1 | – | inconclusive: 15.8 µM [inhibitor, single point]
52 | CCS(=O)(=O)N1CCCC(C(=O)NCCc2ccc(OC)c(OC)c2)C1 (stereo not given) | – | inconclusive: 0.708 µM [activator, full curve]
53 | O=[N+]([O-])c1cc(S(=O)(=O)Nc2cccc(Cl)c2)ccc1N=Nc1c(O)[nH]c2ccccc12 | – | inconclusive: 14.1 µM [inhibitor, single point]
54 | O=S(=O)(Nc1nc2ccccc2nc1Nc1ccc2c(c1)OCO2)c1ccc(F)cc1 | – | inconclusive: 3.98 µM [inhibitor, full curve]
55 | C#CCN(C#N)c1nc(NCC)nc(NC(C)C)n1 | – | inconclusive: 3.16 µM [inhibitor, single point]
56 | Clc1cccc(Cl)c1CNC1CCCC1 | – | active: 0.112 µM
57 | Cn1c(=S)[nH]c2scc(-c3cccs3)c2c1=O | – | inconclusive: 35.5 µM [inhibitor, single point]
58 | O=C(CSc1ccc([N+](=O)[O-])cc1)Nc1cccc(S(=O)(=O)Nc2ccccc2F)c1 | inactive: -23.7% | –
59 | COn1c(SCc2cccc(Cl)c2)nc2ccccc2c1=O | – | inconclusive: 25.1 µM [inhibitor, partial curve]
60 | O=S1(=O)N=C(N=Nc2c(O)[nH]c3ccccc23)c2ccccc21 | – | inconclusive: 0.501 µM [activator, full curve, poor fit]
61 | CC(C)N(C#N)c1nc(N2CCOCC2)nc(N2CCOCC2)n1 | – | inconclusive: 20 µM [inhibitor, single point]
62 | Cc1nnc(C)c2c(C)n(C(c3ccccc3)c3ccccc3)c(C)c12 | – | inconclusive: 35.5 µM [inhibitor, single point]
63 | CCOc1ccc2c(c1)C(C)=CC(C)(C)N2C(=O)Nc1ccccc1F | – | inconclusive: 31.6 µM [activator, single point]
64 | Cc1nccc(-c2cc(-c3ccc(Cl)cc3Cl)no2)n1 | inactive: 0.631% [at 9.22 µM] | –
65 | O=[N+]([O-])c1ccc(NC(=S)N2CCN(c3ccc(F)cc3)CC2)cc1 | – | inconclusive: 22.4 µM [inhibitor, single point]
66 | CC1=NCCN1S(=O)(=O)c1ccccc1[N+](=O)[O-] | inactive: -4.96% | –
67 | COC(=O)c1ccccc1NC(=O)/C=C/C(=O)O | – | inconclusive: 35.5 µM [activator, single point]
68 | O=C(CCc1ccccc1)Nc1nc2n(n1)C(c1ccccc1)CC(=O)N2 (stereo not given) | – | inconclusive: 0.199 µM [inhibitor, partial curve]
69 | CCn1c(SCc2ccccc2Cl)nc2nc3c(cc2c1=O)CCCC3 | – | inconclusive: 22.4 µM [inhibitor, partial curve]
70 | C(=N\Nc1ncnc2nc[nH]c12)/c1cccs1 | – | inconclusive: 22.4 µM [activator, partial curve, poor fit]

Reformatted: 4 of the compounds above.
C[C@H](NC(=O)c1ccco1)C(=O)NCCc1ccc(S(N)(=O)=O)cc1
  activity change, negative = inhibition: inactive: 18.5% [at 9.22 µM]
O=C(c1ccco1)N1CCN(c2nc(C3CC3)nc3c2nnn3Cc2ccccc2Cl)CC1
  Potency: inconclusive: 15.8 µM [inhibitor, single point]
O=S(=O)(Nc1nc2ccccc2nc1Nc1ccc2c(c1)OCO2)c1ccc(F)cc1
  Potency: inconclusive: 3.98 µM [inhibitor, full curve]
O=S1(=O)N=C(N=Nc2c(O)[nH]c3ccccc23)c2ccccc21
  Potency: inconclusive: 0.501 µM [activator, full curve, poor fit]
